# Some of the results follow.
# B1: CcfD (Bacteroides fragilis), Q5L9G4 (protein)
# chain: MKKQNSIYTLLIALLCFVSSCDYLGVSDQLAGGLQNTEQVFDNVSYTKRWYANVFAGIPDYSGINSVNVGAFKNPWTGMCDELVVGYGNSSKYNNSDRNAANMGFHRYGDCYKYIRQANIFLQKAHPIMTTGTQGDQLLEDELTQMKANVRFMRAFYHYLLFEQYGPIILVKDKIYNATEDQDVPRNTVDEVIEYIDSELTAVASELTQEPIFEDKDYRAWPTKGVALAVRAKLWLYAASPLLNGGYREALSVTNPDGTRLFPDYDAGKWEKALAACKDFIDYAEAGRYELYKEYKDDNGAVIDPDKSVYNLFQKYTHEIIWATANNDWGGMNGDAFDRRIAPRCEKNGLGSTGVTQELVDAFYMKDGFPVSATAYLPQSTLYQEEGYGTYKDQNDNFSKKYTNVTVSNRYLNREPRFYNTVFFNGRQWPVSCNQVLFYNGGNSGVQEGQATLTGYMLFKRFNRSVSLTNPGVASQFRPSIIFRLADFYLMYAEAANEVNPNDARVLKYLNLVRERAGLPDIETLNPAIRGNQELQRAAIQRERQIELATEGQRYFDVRRWMIADKNGEGRQNGYVHGMNVRGESNDKEDFNRIVEASQIVFNRKMYLYPMPDSEMRKTKNLVQNPGW
# Key:
# Assay in all cases: glycan array binding signal (z-score within array); higher = stronger binding
# Conditions in all cases: glycan notation: IUPAC condensed, linker removed
# [1] = biological target: Neu5Ac(a2-6)Gal(b1-4)GlcNAc(b1-3)Gal(b1-4)GlcNAc(b1-3)GalNAc
# Method in brief: (§1)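 The binding signal is a Z-score computed within each array. Data were drawn from 3228 arrays in the Consortium for Functional Glycomics database, restricted to those with a known protein sequence. Scores were averaged over arrays of the same protein sequence at different concentrations or buffers, and over linkers, and negative values can be taken as non-binding.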
# [2] = biological target: Neu5Ac(a2-6)Gal(b1-4)GlcNAc(b1-3)Gal(b1-4)GlcNAc(b1-3)[Neu5Ac(a2-6)Gal(b1-4)GlcNAc(b1-3)Gal(b1-4)GlcNAc(b1-6)]GalNAc
# Method in brief: as §1
# [3] = biological target: Neu5Ac(a2-6)Gal(b1-4)GlcNAc(b1-3)Gal(b1-4)GlcNAc(b1-6)[Gal(b1-3)]GalNAc
# Method in brief: as §1
# [4] = biological target: Neu5Ac(a2-6)Gal(b1-4)GlcNAc(b1-3)Gal(b1-4)[Fuc(a1-3)]GlcNAc(b1-3)Gal(b1-4)[Fuc(a1-3)]GlcNAc
# Method in brief: as §1
# [5] = biological target: Neu5Ac(a2-6)Gal(b1-4)GlcNAc(b1-3)GalNAc
# Method in brief: as §1
# [6] = biological target: Neu5Ac(a2-6)Gal(b1-4)GlcNAc(b1-3)[Neu5Ac(a2-6)Gal(b1-4)GlcNAc(b1-6)]GalNAc
# Method in brief: as §1
# [7] = biological target: Neu5Ac(a2-6)Gal(b1-4)GlcNAc(b1-6)GalNAc
# Method in brief: as §1
# [8] = biological target: Neu5Ac(a2-6)Gal(b1-4)GlcNAc(b1-6)[Gal(b1-3)GlcNAc(b1-3)]Gal(b1-4)Glc
# Method in brief: as §1
# [9] = biological target: Neu5Ac(a2-6)Gal(b1-4)GlcNAc(b1-6)[Gal(b1-3)]GalNAc
# Method in brief: as §1
# [10] = biological target: Neu5Ac(a2-6)Gal(b1-4)GlcNAc6S
# Method in brief: as §1
# Neu5Ac(a2-6)GalNAc = biological target: Neu5Ac(a2-6)GalNAc
# Method in brief: as §1
# [11] = biological target: Neu5Ac(a2-6)GalNAc(b1-4)GlcNAc
# Method in brief: as §1
# [12] = biological target: Neu5Ac(a2-6)GalNAc(b1-4)GlcNAc6S
# Method in brief: as §1
# [13] = biological target: Neu5Ac(a2-6)GlcNAc(b1-4)GlcNAc
# Method in brief: as §1
# [14] = biological target: Neu5Ac(a2-6)GlcNAc(b1-4)GlcNAc(b1-4)GlcNAc
# Method in brief: as §1
# Neu5Ac(a2-8)Neu5Ac = biological target: Neu5Ac(a2-8)Neu5Ac
# Method in brief: as §1
# [15] = biological target: Neu5Ac(a2-8)Neu5Ac(a2-3)Gal(b1-3)GalNAc(b1-4)[Neu5Ac(a2-3)]Gal(b1-4)Glc
# Method in brief: as §1
# [16] = biological target: Neu5Ac(a2-8)Neu5Ac(a2-3)Gal(b1-3)GalNAc(b1-4)[Neu5Ac(a2-8)Neu5Ac(a2-3)]Gal(b1-4)Glc
# Method in brief: as §1
# [17] = biological target: Neu5Ac(a2-8)Neu5Ac(a2-3)Gal(b1-4)Glc
# Method in brief: as §1
# [18] = biological target: Neu5Ac(a2-8)Neu5Ac(a2-3)Gal(b1-4)GlcNAc
# Method in brief: as §1
# [19] = biological target: Neu5Ac(a2-8)Neu5Ac(a2-3)[Gal(b1-3)GalNAc(b1-4)]Gal(b1-4)Glc
# Method in brief: as §1
# [20] = biological target: Neu5Ac(a2-8)Neu5Ac(a2-3)[GalNAc(b1-4)]Gal(b1-4)Glc
# Method in brief: as §1
# [21] = biological target: Neu5Ac(a2-8)Neu5Ac(a2-8)Neu5Ac
# Method in brief: as §1
# [22] = biological target: Neu5Ac(a2-8)Neu5Ac(a2-8)Neu5Ac(a2-3)Gal(b1-4)Glc
# Method in brief: as §1
# [23] = biological target: Neu5Ac(a2-8)Neu5Ac(a2-8)Neu5Ac(a2-3)[Gal(b1-3)GalNAc(b1-4)]Gal(b1-4)Glc
# Method in brief: as §1
# [24] = biological target: Neu5Ac(a2-8)Neu5Ac(a2-8)Neu5Ac(a2-3)[GalNAc(b1-4)]Gal(b1-4)Glc
# Method in brief: as §1
# [25] = biological target: Neu5Ac(a2-8)Neu5Ac(a2-8)Neu5Ac(a2-8)Neu5Ac(a2-3)[GalNAc(b1-4)]Gal(b1-4)Glc
# Method in brief: as §1
# [26] = biological target: Neu5Ac(a2-8)Neu5Gc(a2-3)Gal(b1-4)GlcNAc
# Method in brief: as §1
# [27] = biological target: Neu5Ac(b2-6)Gal(b1-4)GlcNAc
# Method in brief: as §1
# Neu5Ac(b2-6)GalNAc = biological target: Neu5Ac(b2-6)GalNAc
# Method in brief: as §1
# [28] = biological target: Neu5Ac9Ac(a2-3)Gal(b1-3)GlcNAc
# Method in brief: as §1
# [29] = biological target: Neu5Ac9Ac(a2-3)Gal(b1-4)GlcNAc
# Method in brief: as §1
# [30] = biological target: Neu5Ac9Ac(a2-6)Gal(b1-4)GlcNAc
# Method in brief: as §1
# [31] = biological target: Neu5Gc(a2-3)Gal(b1-3)GlcNAc
# Method in brief: as §1
# [32] = biological target: Neu5Gc(a2-3)Gal(b1-3)[Fuc(a1-4)]GlcNAc
# Method in brief: as §1
# Neu5Gc(a2-3)Gal(b1-4)Glc = biological target: Neu5Gc(a2-3)Gal(b1-4)Glc
# Method in brief: as §1
# [33] = biological target: Neu5Gc(a2-3)Gal(b1-4)GlcNAc
# Method in brief: as §1
# [34] = biological target: Neu5Gc(a2-3)Gal(b1-4)GlcNAc(b1-3)Gal(b1-4)GlcNAc(b1-2)Man(a1-3)[Neu5Gc(a2-3)Gal(b1-4)GlcNAc(b1-3)Gal(b1-4)GlcNAc(b1-2)Man(a1-6)]Man(b1-4)GlcNAc(b1-4)GlcNAc
# Method in brief: as §1
# [35] = biological target: Neu5Gc(a2-3)Gal(b1-4)[Fuc(a1-3)]GlcNAc
# Method in brief: as §1
# [36] = biological target: Neu5Gc(a2-6)Gal(b1-4)GlcNAc
# Method in brief: as §1
# Neu5Gc(a2-6)GalNAc = biological target: Neu5Gc(a2-6)GalNAc
# Method in brief: as §1
# [37] = biological target: Neu5Gc(a2-8)Neu5Ac(a2-3)Gal(b1-4)GlcNAc
# Method in brief: as §1
# [38] = biological target: Neu5Gc(a2-8)Neu5Gc(a2-3)Gal(b1-4)GlcNAc
# Method in brief: as §1
# [39] = biological target: Neu5Gc(a2-8)Neu5Gc(a2-3)Gal(b1-4)GlcNAc(b1-3)Gal(b1-4)GlcNAc
# Method in brief: as §1
# [40] = biological target: Neu5Gc(a2-8)Neu5Gc(a2-6)Gal(b1-4)GlcNAc
# Method in brief: as §1
# [41] = biological target: Neu5Gc(b2-6)Gal(b1-4)GlcNAc
# Method in brief: as §1
binder,measurement,setting,value
B1,glycan array binding signal (z-score),[1],-1.02
same,glycan array binding signal (z-score),[2],2.75
same,glycan array binding signal (z-score),[3],-0.818
same,glycan array binding signal (z-score),[4],-1.26
same,glycan array binding signal (z-score),[5],1.38
same,glycan array binding signal (z-score),[6],0.548
same,glycan array binding signal (z-score),[7],-1.06
same,glycan array binding signal (z-score),[8],0.903
same,glycan array binding signal (z-score),[9],-0.47
same,glycan array binding signal (z-score),[10],2.06
same,glycan array binding signal (z-score),Neu5Ac(a2-6)GalNAc,-0.016
same,glycan array binding signal (z-score),[11],-0.837
same,glycan array binding signal (z-score),[12],-1.22
same,glycan array binding signal (z-score),[13],-0.128
same,glycan array binding signal (z-score),[14],-0.443
same,glycan array binding signal (z-score),Neu5Ac(a2-8)Neu5Ac,-0.378
same,glycan array binding signal (z-score),[15],1.8
same,glycan array binding signal (z-score),[16],0.686
same,glycan array binding signal (z-score),[17],-1.1
same,glycan array binding signal (z-score),[18],0.456
same,glycan array binding signal (z-score),[19],-1.07
same,glycan array binding signal (z-score),[20],-1.19
same,glycan array binding signal (z-score),[21],0.082
same,glycan array binding signal (z-score),[22],-1.21
same,glycan array binding signal (z-score),[23],-1.02
same,glycan array binding signal (z-score),[24],-0.936
same,glycan array binding signal (z-score),[25],0.01
same,glycan array binding signal (z-score),[26],-0.476
same,glycan array binding signal (z-score),[27],-0.43
same,glycan array binding signal (z-score),Neu5Ac(b2-6)GalNAc,-0.818
same,glycan array binding signal (z-score),[28],-0.542
same,glycan array binding signal (z-score),[29],-0.568
same,glycan array binding signal (z-score),[30],0.227
same,glycan array binding signal (z-score),[31],-0.456
same,glycan array binding signal (z-score),[32],-0.594
same,glycan array binding signal (z-score),Neu5Gc(a2-3)Gal(b1-4)Glc,-0.404
same,glycan array binding signal (z-score),[33],-0.752
same,glycan array binding signal (z-score),[34],2.17
same,glycan array binding signal (z-score),[35],-0.233
same,glycan array binding signal (z-score),[36],1.34
same,glycan array binding signal (z-score),Neu5Gc(a2-6)GalNAc,-0.089
same,glycan array binding signal (z-score),[37],-1.27
same,glycan array binding signal (z-score),[38],-1.19
same,glycan array binding signal (z-score),[39],-0.673
same,glycan array binding signal (z-score),[40],-1.46
same,glycan array binding signal (z-score),[41],-0.043

# Some of the entries so far, with tabs.
binder	measurement	setting	value
B1	glycan array binding signal (z-score)	[6]	0.548
same	glycan array binding signal (z-score)	[7]	-1.06
